In PubChem BioAssay AID1508615 (Milbrandt Lab, Department of Genetics, Washington …, 2020) one finds NAD/ADPR ratio data, which are given here for 60 compounds.

Amino acid sequences for entries named in this document (tags omitted). A change or cut given only in a name is not applied to a line headed by its entry.
UniProt Q6SZW1: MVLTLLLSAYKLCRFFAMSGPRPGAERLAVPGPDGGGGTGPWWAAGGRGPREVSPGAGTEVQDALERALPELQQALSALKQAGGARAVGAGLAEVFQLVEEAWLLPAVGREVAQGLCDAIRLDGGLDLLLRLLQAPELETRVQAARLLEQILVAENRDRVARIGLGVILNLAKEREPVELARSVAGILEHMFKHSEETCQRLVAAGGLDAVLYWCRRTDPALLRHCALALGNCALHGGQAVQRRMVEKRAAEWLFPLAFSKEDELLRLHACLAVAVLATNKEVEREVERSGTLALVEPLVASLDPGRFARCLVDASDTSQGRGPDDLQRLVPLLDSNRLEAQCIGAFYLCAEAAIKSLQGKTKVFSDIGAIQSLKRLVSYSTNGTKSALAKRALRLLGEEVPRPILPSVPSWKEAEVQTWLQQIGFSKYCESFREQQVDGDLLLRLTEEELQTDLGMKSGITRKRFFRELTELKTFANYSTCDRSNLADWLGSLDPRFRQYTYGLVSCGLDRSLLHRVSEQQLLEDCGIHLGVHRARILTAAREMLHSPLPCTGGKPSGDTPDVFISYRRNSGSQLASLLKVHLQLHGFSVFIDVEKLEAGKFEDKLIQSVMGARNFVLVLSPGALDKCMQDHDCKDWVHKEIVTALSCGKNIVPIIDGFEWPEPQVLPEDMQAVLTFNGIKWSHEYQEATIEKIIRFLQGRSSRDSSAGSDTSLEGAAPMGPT

Each structure is given as a SMILES string. About 20 (1%) of roughly 1,600 compounds were called active.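 The calls were made as follows: active = ratio of uncleaved NAD to its breakdown product ADP-ribose above 4, meaning the enzyme was inhibited; inactive = the rest.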 The list shows a part of the results.

The assay concerns the target NAD(+) hydrolase SARM1 (Homo sapiens) (UniProt Q6SZW1). In words: inhibition of SAM-TIR NAD hydrolysis to ADPR – cell lysate, HPLC readout, primary screen (AID 1508615).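 Also: substrate NAD at 5 µM with 60 min at 37 °C.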 The conditions noted are these: HEK293T SAM-TIR lysate, NAD/ADPR ratio by HPLC; at 5 µM; hits give high values.
In the case of `COc1cccc(/C=C/c2nccc3ccccc23)c1OC`, the NAD/ADPR ratio is inactive: 3.

For the compound `NC(=O)c1cc2c3ccccc3ccn2c1-c1ccccc1`, the NAD/ADPR ratio was inactive: 3.

As for `CC1CO/C(=C2\C(=O)OCC2C)C1` (stereo not given), the NAD/ADPR ratio is inactive: 3.

For the compound `COc1ccc2c(c1)CCN1C2CCN2C(=O)CCC21` (stereo not given), the NAD/ADPR ratio is inactive: 3.

Take `CC1CC(C)(C)NC2(CCCC2)N1` (stereo not given): the NAD/ADPR ratio was inactive: 3.

For `COC(=NC(C)C)NC(C)C`, the NAD/ADPR ratio was inactive: 3.

Consider `Cc1c2cc(O)c(=O)cc-2oc2cc(O)c(O)cc12`, for which the NAD/ADPR ratio was inactive: 3.

Turning to `CCOC(=O)c1cc(-c2cccnc2)nc2c(Cl)cc(Cl)cc12`, the NAD/ADPR ratio is inactive: 3.

Take `O=C(Nc1ccccc1-c1ccccc1)C(=O)Nc1ccccc1-c1ccccc1`: the NAD/ADPR ratio was inactive: 3.

Regarding `c1ccc(-c2nnc(-c3ccccc3)nn2)cc1`, the NAD/ADPR ratio was inactive: 3.

For the compound `c1ccc(-c2n[nH]c(-c3ccccn3)n2)nc1`, the NAD/ADPR ratio was inactive: 3.

As to `O=C(c1cccnc1)c1cc(-c2ccccn2)c(=O)n2ccccc12`, the NAD/ADPR ratio was inactive: 3.

With `O=C(O)CCCCC1SCC2NC(=O)NC21` (stereo not given), the NAD/ADPR ratio was inactive: 3.

On to `CCCc1nc(NC(=O)c2ccccc2)nc(NC(=O)c2ccccc2)n1`, for which the NAD/ADPR ratio is inactive: 3.

Take `COc1cccc2c1C(CO)N1C(C#N)C3CC(C(=O)O)C(C1C2)N3C` (stereo not given): the NAD/ADPR ratio was inactive: 3.

Take `Nc1cnc(Nc2ccc(Br)cc2)nc1N`: the NAD/ADPR ratio was inactive: 3.

For `OCCCCc1nccc2c1[nH]c1ccccc12`, the NAD/ADPR ratio was inactive: 3.

Take `O=C(/C=C/c1ccc2ccccc2n1)c1cc(Cl)ccc1O`: the NAD/ADPR ratio is inactive: 3.

Turning to `COC(=O)CC1(C(=O)OC)Nc2cc(Cl)c(Cl)cc2S(=O)(=O)N1O` (stereo not given), the NAD/ADPR ratio is active: 13.5.

`O=C(/C=C/C(=O)N1CCc2ccccc2C1)N1CCc2ccccc2C1`: the NAD/ADPR ratio was inactive: 3.

For `COC(=O)c1cc2c(n1S(=O)(=O)c1ccc(C)cc1)C(=O)C(=O)c1[nH]cc(C(=O)OCc3ccccc3)c1-2`, the NAD/ADPR ratio was inactive: 3.

Take `CC(C)(C)c1ccc(C(=O)Nc2ccc(S(N)(=O)=O)cc2)cc1`: the NAD/ADPR ratio was inactive: 3.

Consider `COc1ccc(OC)c(NC(=O)c2cc3oc4ccccc4c3cc2O)c1`, for which the NAD/ADPR ratio was inactive: 3.

In the case of `Clc1nc(NCCc2ccccc2)c2cn[nH]c2n1`, the NAD/ADPR ratio was inactive: 2.8.

`Cn1ncc2c(Nc3ccc([N+](=O)[O-])cc3)nc(Cl)nc21`: the NAD/ADPR ratio is inactive: 3.

`O=C1C2CC3N1CCC31c3ccccc3-n3c1c2ccc3=O` (stereo not given): the NAD/ADPR ratio was inactive: 3.

On to `Cc1nc(/N=C(\N)N(C)C)[nH]c(=O)c1C`, for which the NAD/ADPR ratio was inactive: 3.

On to `Cc1nc2nc(C(F)(F)F)[nH]c2nc1C`, for which the NAD/ADPR ratio was inactive: 3.

For the compound `O=C(Nc1ccc(Cl)c(Cl)c1)Nc1ccc([N+](=O)[O-])cn1`, the NAD/ADPR ratio is inactive: 3.

For the compound `O=C1CSCc2nc3ccccc3n21`, the NAD/ADPR ratio is inactive: 3.

For the compound `Cc1ccc(-c2cc(C(=O)O)c3ccccc3n2)c(C)c1`, the NAD/ADPR ratio was inactive: 3.

As to `Clc1nnc(NC2CCCCC2)c(Cl)c1Cl`, the NAD/ADPR ratio is inactive: 3.

On to `COC(=O)C(=Cc1ccccc1[N+](=O)[O-])C(=O)OC`, for which the NAD/ADPR ratio was inactive: 3.

`COc1ccc2c3c([nH]c2c1)C1CC2C(CC(O)C(OC)C2CO)CN1CC3` (stereo not given): the NAD/ADPR ratio is inactive: 3.

For `C=CCNC(=O)C1COc2ccccc2O1` (stereo not given), the NAD/ADPR ratio is inactive: 3.

Turning to `Cn1c2ccccc2c2ccc3c(c21)C(=O)C=CC3=O`, the NAD/ADPR ratio was active: 12.5.

Take `Cc1cc2c3ccccc3ncn2n1`: the NAD/ADPR ratio was inactive: 3.

With `CCOC(=O)c1c(C)nc(C)c(C(=O)OCC)c1-c1cccnc1`, the NAD/ADPR ratio is inactive: 3.

Regarding `c1ccc2c(c1)Nc1ccncc1S2`, the NAD/ADPR ratio is inactive: 3.

Regarding `Cc1cc2c(c(C#N)c1C)NC=NC2C` (stereo not given), the NAD/ADPR ratio was inactive: 3.

As to `CN(C)c1ccc(N=Nc2cccc3ccoc23)cc1`, the NAD/ADPR ratio is inactive: 3.

For the compound `Cn1c(N)c(N=Nc2ccc(S(N)(=O)=O)cc2)c(=O)n(C)c1=O`, the NAD/ADPR ratio is inactive: 3.

`N=c1ccn2c(n1)OC1C(O)C(CO)OC12` (stereo not given): the NAD/ADPR ratio was inactive: 3.

In the case of `COC(=O)c1ccc(Cn2cnc3c(Cl)ncnc32)cc1`, the NAD/ADPR ratio is inactive: 3.

Turning to `CC(C)CCCCCCCCCCCCC(=O)NCC(=O)NC1C(C)OC(Nc2ncnc3nc[nH]c23)C(O)C1O` (stereo not given), the NAD/ADPR ratio was inactive: 3.

With `CCCNC(=S)Nc1ccccc1`, the NAD/ADPR ratio is inactive: 3.

Turning to `O=[N+]([O-])c1ccc2c(c1)S(=O)c1ccccc1-2` (stereo not given), the NAD/ADPR ratio is inactive: 3.

Take `CN1CCN(C2=NCCO2)CC1`: the NAD/ADPR ratio was inactive: 3.

In the case of `CC1=Nc2ccccc2/C1=C\c1c(C)[nH]c2ccccc12`, the NAD/ADPR ratio is inactive: 3.

Regarding `CN1CCC(n2[nH]c(-c3ccccc3)c(Cc3ccccc3)c2=O)CC1`, the NAD/ADPR ratio is inactive: 3.

For `c1coc(CNc2ncnc3[nH]ncc23)c1`, the NAD/ADPR ratio is inactive: 3.

On to `O=C1NC(=S)S/C1=C\c1ccccc1C(=O)O`, for which the NAD/ADPR ratio is inactive: 3.

Take `N#CN=C(N)c1ccccc1`: the NAD/ADPR ratio is inactive: 3.

Regarding `O=C1c2cccc(Oc3ccccc3)c2C(=O)c2cccc(Oc3ccccc3)c21`, the NAD/ADPR ratio was inactive: 3.

For `COC(=O)N1C2CCCCC2=NN(c2ccccc2)N1C(=O)OC` (stereo not given), the NAD/ADPR ratio is inactive: 3.

On to `CCOc1ccc(NC(=O)c2cc3ccccc3cc2O)cc1`, for which the NAD/ADPR ratio is inactive: 3.

Take `CCOC(=O)Cc1csc2nc(-c3ccccc3)nn12`: the NAD/ADPR ratio was inactive: 1.9.

Take `CCCCCCCC1(C)NC(=O)NC1=O` (stereo not given): the NAD/ADPR ratio is inactive: 3.

In the case of `Cc1c2cnccc2c(C)c2c1c1ccccc1n2CCOC(=O)c1ccccc1`, the NAD/ADPR ratio was inactive: 3.

`Cc1nc(C(N)=O)nc2ccccc12`: the NAD/ADPR ratio was inactive: 3.
